No constants are given. Whether binding was seen depends on the method and setting. Binding seen in cells or lysates may run through a third protein. Some results given as binding are weak or reduced against the parent protein; the word gives no strength.
T1: wild-type DDX6 of the co-IP experiments of Supplementary Fig. S6 (UniProt P54823)
T1 sequence: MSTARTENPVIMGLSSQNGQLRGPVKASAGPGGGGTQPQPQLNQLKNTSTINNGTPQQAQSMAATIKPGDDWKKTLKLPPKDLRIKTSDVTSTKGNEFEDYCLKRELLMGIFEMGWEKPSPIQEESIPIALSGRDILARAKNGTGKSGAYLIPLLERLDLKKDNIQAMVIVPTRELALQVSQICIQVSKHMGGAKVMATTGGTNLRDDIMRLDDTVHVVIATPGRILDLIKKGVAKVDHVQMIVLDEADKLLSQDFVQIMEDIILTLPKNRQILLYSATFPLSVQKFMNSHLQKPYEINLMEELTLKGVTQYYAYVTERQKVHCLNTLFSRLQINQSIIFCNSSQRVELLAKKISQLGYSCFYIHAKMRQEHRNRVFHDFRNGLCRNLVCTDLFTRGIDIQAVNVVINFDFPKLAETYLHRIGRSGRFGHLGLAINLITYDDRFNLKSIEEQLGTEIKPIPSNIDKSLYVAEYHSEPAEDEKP


Target: T1, wild-type DDX6 of the co-IP experiments of Supplementary Fig. S6
Assay: co-IP; co-IP of wild-type, truncated and mutant DDX6 proteins (Supplementary Fig. S6A, B); cells not given; western blot

Binder	binding
EDC3 (protein, UniProt Q8K2D3 1-508) MAMDWLGSIVSINCGDSLGVYQGRVSAVDQVSQTISLTRPFHNGVKCLVPEVTFRAGDITELKILEIPGPGDNQQVGDLHQTELGPSGVGYQMSISQNGTGKVVKKPASSSSAPQSIPKRTDVKSQDVAISPQQQQCSKSYVDRHMESLSQSKSFRRRHNSWSSSSRHPNQATPKKSGLKNGQMKNKDDECFGDDIEELPDTDFDFEGNLALFDKAAVFEEIDTYERRSGSRSRGVPNERPARYRHDENILESEPIVYRRITVPHSVSKEFCTDSGLVVPSVSYELHKKLLSVAEKHGLTLERRLEMTGVCASQMALTLLGGPNRLNPKNVHQRPTVALLCGPHVKGAQGISCGRHLANHDVQVILFLPNFVKMLESITNELSLFSKTQGQQVSSLRDLPASPVDLVINCLDCPENAFLRDQPWYKAAVAWANQNRAPVLSIDPPVHEVEQGIDAKWSLALGLPLPLGEHAGRVYLCDIGIPQQVFQEVGINYHSPFGCKFVIPLHSA	binds
eIF4E transporter (4E-T) (protein, UniProt Q9EST3 1-983) MEKSVAETENGDAFLELKKLPTSKSPHRYTKEELLDIKERPYSKQRPSCLSEKYDSDGVWDPEKWHASLYPASGRSSPVESLKKESESDRPSLVRRIADPRERVKEDDLDVVLSPQRRSFGGGCHVTAAVSSRRSGSPLEKDSDGLRLLGGRRIGSGRIISARAFEKDHRLSDKDLRDLRDRDRERDYKDKRFRREFGDSKRVFGERRRNDSYTEEEPEWFSAGPTSQSETIELTGFDDKILEEDHKGRKRTRRRTASVKEGIVECNGGVAEEDEVEVILAQEPSADQEVPRDVILPEQSPGEFDFNEFFNLDKVPCLASMIEDVLGEGSVSASRFSRWFSNPSRSGSRSSSLGSTPHEELERLAGLEQAVLSPGQNSGNYFAPIPSEDHAENKVDILEMLQKAKVDLKPLLSSLSANKEKLKESSHSGVVLSVEEVEAGLKGLKVDQQMKNSTPFMAEHLEETLSAASSNRQLKKDGDMTAFNKLVNTMKASGTLPTQPKVSRNVESHLLAPAEIPGQPVSKNILQELLGQPVQRPASSNLLSGLMGSLEATASLLSQRAPSPPMSQVFRTQAASADYLHPRIPSPIGFPSGPQQLLGDPFQGMRKPMSPVSAQMSQLELQQAALEGLALPHDLAVQTAPFYQPGFSKPQVDRTRDGLRNRQQRMSKSPAPMHGGNSSSPAPAASITSMLSPSFTPTSVIRKMYESREKTKEEMAPGMVVPGDGKEDTQKTSEENLLSSNPIPNTDQDSSTTNPKLSTLQRSSCSTPLSQTSRYTKEQDYRPKTAGRKTPTLASPVPGTPFLRPTHQVPLVPHVPIVRPAHQLHPGLVQRLIAQGVHPQHLPSLLQAGVLPPGIDMAPLQGLSGPLLGQPLYPLVSAASHPLLNPRPGTPLHLAVMQQQLQRSVLHPPGSSSQAAAISVQTPQNVPSRSGMPHMHSQLEHRTSQRSSSPVGLAKWFGSDVLQQPLPSMPTKVISVDELEYRQ	binds
